For the assay, the target named is T1, muscleblind-like protein 1 (MBNL1) (human (endogenous in DM1 patient fibroblasts)) (UniProt Q9NR56).
T1 sequence: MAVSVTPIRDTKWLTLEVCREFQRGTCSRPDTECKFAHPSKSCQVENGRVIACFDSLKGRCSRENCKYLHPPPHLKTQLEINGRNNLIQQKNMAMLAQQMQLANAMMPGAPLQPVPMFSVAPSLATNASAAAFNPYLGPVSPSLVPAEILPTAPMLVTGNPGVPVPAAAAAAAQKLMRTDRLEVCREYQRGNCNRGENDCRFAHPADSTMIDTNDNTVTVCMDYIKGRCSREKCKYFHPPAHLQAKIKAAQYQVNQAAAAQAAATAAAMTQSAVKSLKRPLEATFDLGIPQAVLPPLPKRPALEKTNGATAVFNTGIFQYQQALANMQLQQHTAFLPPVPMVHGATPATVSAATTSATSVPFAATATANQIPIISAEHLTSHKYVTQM
Kind of assay: FRET or BRET; acceptor photobleaching FRET (AP-FRET) in fixed, permeabilised DM1 fibroblasts; endogenous proteins labelled by primary antibodies and Alexa488 or Alexa555 secondary antibodies; E% distribution compared with donor-only control; which protein was donor is not told.

Results are given in words; binding and its absence hold for the method and conditions named. In cells and extracts the contact can be indirect.

Experimental findings from paper PMC4004549 are described below.

With hnRNPH, the binding result is on record as “no binding”.
